# Paper PMC8384837
# Positions count from the first letter of the chain named. Some of the results follow. For some assays here: At the low end of the ranking the order means little.
# Legend:
# Conditions in all cases: yeast three-hybrid, YBZ-1, SC-Leu-His + 0.5 mM 3-AT, 4 days
# [1] = biological target: T1, PUM1 PUF domain R1-GFR S863G + R864F + Q867R (Homo sapiens) (UniProt Q14671)
# T1 sequence: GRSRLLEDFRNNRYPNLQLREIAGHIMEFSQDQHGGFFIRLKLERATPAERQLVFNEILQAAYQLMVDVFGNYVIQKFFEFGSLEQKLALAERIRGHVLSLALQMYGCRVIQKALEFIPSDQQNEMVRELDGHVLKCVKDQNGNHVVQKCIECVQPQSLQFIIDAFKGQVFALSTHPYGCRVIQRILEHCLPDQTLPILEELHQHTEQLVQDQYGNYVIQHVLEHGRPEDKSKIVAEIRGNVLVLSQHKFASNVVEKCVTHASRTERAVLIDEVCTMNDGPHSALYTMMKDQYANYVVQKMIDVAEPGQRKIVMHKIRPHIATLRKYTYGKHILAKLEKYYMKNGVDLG
# [2] = biological target: T2, PUM1 PUF domain R1-NLV S863N + R864L + Q867V (Homo sapiens) (UniProt Q14671)
# T2 sequence: T1 sequence with G36N, F37L, R40V
# [3] = biological target: T3, PUM1 PUF domain R1-SRR Q867R (Homo sapiens) (UniProt Q14671)
# T3 sequence: T1 sequence with G36S, F37R
# [4] = biological target: T4, PUM1 PUF domain R1-QFR R2-VFQ R6-SWD S863Q + R864F + Q867R + N899V + Y900F + N1043S + Y1044W + Q1047D (Homo sapiens) (UniProt Q14671)
# T4 sequence: T1 sequence with G36Q, N72V, Y73F, N216S, Y217W, Q220D
# [5] = biological target: T5, PUM1 PUF domain R6-DFE N1043D + Y1044F + Q1047E (UniProt Q14671)
# T5 sequence: T1 sequence with G36S, F37R, R40Q, N216D, Y217F, Q220E
# [6] = biological target: T6, PUM1 PUF domain R6-FRV N1043F + Y1044R + Q1047V (UniProt Q14671)
# T6 sequence: T1 sequence with G36S, F37R, R40Q, N216F, Y217R, Q220V
# [7] = biological target: T7, PUM1 PUF domain R6-GFC N1043G + Y1044F + Q1047C (UniProt Q14671)
# T7 sequence: T1 sequence with G36S, F37R, R40Q, N216G, Y217F, Q220C
# [8] = biological target: T8, PUM1 PUF domain R6-GFE N1043G + Y1044F + Q1047E (UniProt Q14671)
# T8 sequence: T1 sequence with G36S, F37R, R40Q, N216G, Y217F, Q220E
# [9] = biological target: T9, PUM1 PUF domain R6-GFK N1043G + Y1044F + Q1047K (UniProt Q14671)
# T9 sequence: T1 sequence with G36S, F37R, R40Q, N216G, Y217F, Q220K
# [10] = biological target: T10, PUM1 PUF domain R6-GRQ N1043G + Y1044R (Homo sapiens) (UniProt Q14671)
# T10 sequence: T1 sequence with G36S, F37R, R40Q, N216G, Y217R
# [11] = biological target: T11, PUM1 PUF domain R6-GYR N1043G + Q1047R (Homo sapiens) (UniProt Q14671)
# T11 sequence: T1 sequence with G36S, F37R, R40Q, N216G, Q220R
# [12] = biological target: T12, PUM1 PUF domain R6-HHS N1043H + Y1044H + Q1047S (UniProt Q14671)
# T12 sequence: T1 sequence with G36S, F37R, R40Q, N216H, Y217H, Q220S
# [13] = biological target: T13, PUM1 PUF domain R6-IYV N1043I + Q1047V (Homo sapiens) (UniProt Q14671)
# T13 sequence: T1 sequence with G36S, F37R, R40Q, N216I, Q220V
# [14] = biological target: T14, PUM1 PUF domain R6-MYL N1043M + Q1047L (Homo sapiens) (UniProt Q14671)
# T14 sequence: T1 sequence with G36S, F37R, R40Q, N216M, Q220L
# [15] = biological target: T15, PUM1 PUF domain R6-NYV Q1047V (UniProt Q14671)
# T15 sequence: T1 sequence with G36S, F37R, R40Q, Q220V
# [16] = biological target: T16, PUM1 PUF domain R6-NYW Q1047W (UniProt Q14671)
# T16 sequence: T1 sequence with G36S, F37R, R40Q, Q220W
# [17] = biological target: T17, PUM1 PUF domain R6-SHE N1043S + Y1044H + Q1047E (UniProt Q14671)
# T17 sequence: T1 sequence with G36S, F37R, R40Q, N216S, Y217H, Q220E
# [18] = biological target: T18, PUM1 PUF domain R6-TFA N1043T + Y1044F + Q1047A (Homo sapiens) (UniProt Q14671)
# T18 sequence: T1 sequence with G36S, F37R, R40Q, N216T, Y217F, Q220A
# [19] = biological target: T19, PUM1 PUF domain R6-WWS N1043W + Y1044W + Q1047S (Homo sapiens) (UniProt Q14671)
# T19 sequence: T1 sequence with G36S, F37R, R40Q, N216W, Y217W, Q220S
# [20] = biological target: T20, PUM1 PUF domain R6-WYG N1043W + Q1047G (UniProt Q14671)
# T20 sequence: T1 sequence with G36S, F37R, R40Q, N216W, Q220G
sequence,measurement,setting,value
GGCUAGAACUAGUGGAUCCCCCGGCGCCCGGCGGCUCGAGCCCGGGUAAGUGUAAAUGGUCUGCAUGCCGCCGGGCGCCAUGCCUGCAGGUCGACUCUAGAAAACAUG,binding signal (log2 enrichment (interaction score)),[1],-2.1
same,binding signal (log2 enrichment (interaction score)),[2],-3.73
same,binding signal (log2 enrichment (interaction score)),[3],-1.7
GGCUAGAACUAGUGGAUCCCCCGGCGCCCGGCGGCUCGAGCCCGGGUAAGUUCAUAUAGUCUGCAUGCCGCCGGGCGCCAUGCCUGCAGGUCGACUCUAGAAAACAUG,binding signal (log2 enrichment (interaction score)),[4],3.91
GGCUAGAACUAGUGGAUCCCCCGGCGCCCGGCGGCUCGAGCCCGGGUAAGUGAAAAUAGUCUGCAUGCCGCCGGGCGCCAUGCCUGCAGGUCGACUCUAGAAAACAUG,binding signal (log2 enrichment (interaction score)),[5],-4.7
same,binding signal (log2 enrichment (interaction score)),[6],< -6.95
same,binding signal (log2 enrichment (interaction score)),[7],< -7.83
same,binding signal (log2 enrichment (interaction score)),[8],-6.01
same,binding signal (log2 enrichment (interaction score)),[9],-5.78
same,binding signal (log2 enrichment (interaction score)),[10],0.36
same,binding signal (log2 enrichment (interaction score)),[11],-0.07
same,binding signal (log2 enrichment (interaction score)),[12],< -6.9
same,binding signal (log2 enrichment (interaction score)),[13],0.29
same,binding signal (log2 enrichment (interaction score)),[14],0.54
same,binding signal (log2 enrichment (interaction score)),[15],-5.77
same,binding signal (log2 enrichment (interaction score)),[16],-3.85
same,binding signal (log2 enrichment (interaction score)),[17],-3.11
same,binding signal (log2 enrichment (interaction score)),[18],1.23
same,binding signal (log2 enrichment (interaction score)),[19],-0.01
same,binding signal (log2 enrichment (interaction score)),[20],-6.77

# Reprinted at random: two entries already listed.
sequence,measurement,setting,value
GGCUAGAACUAGUGGAUCCCCCGGCGCCCGGCGGCUCGAGCCCGGGUAAGUGAAAAUAGUCUGCAUGCCGCCGGGCGCCAUGCCUGCAGGUCGACUCUAGAAAACAUG,binding signal (log2 enrichment (interaction score)),[8],-6.01
same,binding signal (log2 enrichment (interaction score)),[19],-0.01
